Measurements published in publication PMC10540216, “Activity Guided Azide-methyllysine Photo-trapping for Substrate Profiling of Lysine Demethylases” (Journal of the American Chemical Society, 2023).
No constants are given. Whether binding was seen depends on the method and setting. In cells and extracts the contact can be indirect. Some binding calls cover weakened binding; strength is not graded here.

Chains of the proteins cited; added tags and fusions are not shown.
UniProt P83916: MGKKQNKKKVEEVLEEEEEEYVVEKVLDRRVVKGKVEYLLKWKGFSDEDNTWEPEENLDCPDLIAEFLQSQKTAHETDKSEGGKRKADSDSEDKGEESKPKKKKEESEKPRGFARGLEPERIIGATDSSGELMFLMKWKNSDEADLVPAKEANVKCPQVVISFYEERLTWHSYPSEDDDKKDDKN
UniProt P38919: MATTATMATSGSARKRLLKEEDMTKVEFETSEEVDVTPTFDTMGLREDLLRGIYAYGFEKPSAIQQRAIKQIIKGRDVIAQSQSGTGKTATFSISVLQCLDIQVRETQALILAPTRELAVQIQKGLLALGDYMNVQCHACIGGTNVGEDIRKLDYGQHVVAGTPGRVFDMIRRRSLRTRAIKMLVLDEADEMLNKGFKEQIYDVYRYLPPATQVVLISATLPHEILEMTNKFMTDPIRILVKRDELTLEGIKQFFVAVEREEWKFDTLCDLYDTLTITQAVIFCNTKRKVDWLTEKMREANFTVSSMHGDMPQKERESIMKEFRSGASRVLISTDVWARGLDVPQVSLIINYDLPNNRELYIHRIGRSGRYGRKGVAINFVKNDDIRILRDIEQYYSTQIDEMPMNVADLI

Legend:
[1] = molecular target: endogenous CBX1 (human (endogenous in HEK293T)) (UniProt P83916); assay: co-IP; CBX1 antibody cross-linked (BS3) to Protein A Dynabeads, 4 mg nuclear extracts of HEK293T cells expressing control vector, G9a or KDM4A, overnight at 4 °C; Western blot for eIF4A3, Kme3 and CBX1
[2] = molecular target: recombinantly expressed CBX1 (6xHis in N-terminus) (UniProt P83916); assay: pull-down; nuclear extracts from HEK293T cells expressing control vector, G9a or KDM4A supplemented with recombinant 6xHis-CBX1; Ni-NTA-coated magnetic beads; immunoblot; only the target purified
[3] = molecular target: endogenous CBX1 (human (endogenous in HEK293T)) (UniProt P83916); assay: co-IP; immunoprecipitation with the CBX1 antibody from HEK293T cells transfected with control vector, G9a or KDM4A; immunoblot for eIF4A3

| Substance | binding [1] | binding [2] | binding [3] |
| --- | --- | --- | --- |
| endogenous eIF4A3 (from UniProt P38919 1-411) | binds |  |  |
| eukaryotic translational initiation factor 4A3 (from UniProt P38919 1-411) |  | binds | binds |
